Paper PMC4669806
Results are given in words; binding and its absence hold for the method and conditions named. Binding seen in cells or lysates may run through a third protein. Some results given as binding are weak or reduced against the parent protein; the word gives no strength.

Chains of the proteins cited; added tags and fusions are not shown.
UniProt P14598: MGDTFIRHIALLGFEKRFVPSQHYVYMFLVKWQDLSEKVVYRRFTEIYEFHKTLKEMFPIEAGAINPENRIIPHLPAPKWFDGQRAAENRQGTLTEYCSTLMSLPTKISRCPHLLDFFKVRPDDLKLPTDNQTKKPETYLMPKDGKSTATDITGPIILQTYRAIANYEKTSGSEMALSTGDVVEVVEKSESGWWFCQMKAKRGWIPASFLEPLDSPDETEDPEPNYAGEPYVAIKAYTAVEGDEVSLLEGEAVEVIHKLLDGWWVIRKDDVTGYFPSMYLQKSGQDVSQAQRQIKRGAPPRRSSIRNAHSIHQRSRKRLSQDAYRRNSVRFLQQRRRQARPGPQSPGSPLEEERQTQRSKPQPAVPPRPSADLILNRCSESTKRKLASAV
UniProt Q03135: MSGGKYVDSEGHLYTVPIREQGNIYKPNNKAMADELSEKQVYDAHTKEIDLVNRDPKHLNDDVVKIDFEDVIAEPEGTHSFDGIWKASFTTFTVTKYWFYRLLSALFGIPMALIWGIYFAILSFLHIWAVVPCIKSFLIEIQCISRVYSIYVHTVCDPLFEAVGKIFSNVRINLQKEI

Target: T1, NADPH oxidase 2 (NOX2, gp91^phox) (human (endogenous in INT-407)) (UniProt P04839)
T1 sequence: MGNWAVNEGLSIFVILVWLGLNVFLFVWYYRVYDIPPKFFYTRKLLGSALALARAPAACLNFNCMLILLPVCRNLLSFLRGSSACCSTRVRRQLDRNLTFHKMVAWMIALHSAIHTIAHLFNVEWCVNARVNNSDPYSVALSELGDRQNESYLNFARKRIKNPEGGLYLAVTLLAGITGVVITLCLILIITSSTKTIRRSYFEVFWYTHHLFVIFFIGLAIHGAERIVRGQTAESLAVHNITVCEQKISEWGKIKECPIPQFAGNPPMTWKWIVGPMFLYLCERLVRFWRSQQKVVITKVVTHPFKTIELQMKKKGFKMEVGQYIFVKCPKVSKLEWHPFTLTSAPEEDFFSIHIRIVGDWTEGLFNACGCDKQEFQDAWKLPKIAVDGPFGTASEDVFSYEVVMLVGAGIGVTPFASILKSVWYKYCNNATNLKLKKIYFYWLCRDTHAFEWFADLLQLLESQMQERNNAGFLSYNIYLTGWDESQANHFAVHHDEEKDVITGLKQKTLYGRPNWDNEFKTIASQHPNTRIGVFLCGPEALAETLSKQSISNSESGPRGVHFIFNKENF
Experiment: co-IP; INT-407 cells treated with rVvhA (50 pg/ml, 30 min) or vehicle (boiled rVvhA); lysis in 1% Triton X-100, 50 mM Tris-HCl pH 7.4, 150 mM NaCl, 5 mM EDTA; 400 ug lysate with 10 ug anti-NOX2 antibody, Protein A/G PLUS-agarose; western blotting for NCF1 and caveolin-1

Substance: NCF1 (p47^phox) (from UniProt P14598 1-390)
- binding: binds

Substance: caveolin-1 (from UniProt Q03135 1-178)
- binding: binds
